Paper PMC9897159
These are yes or no findings as the source states them, for the method shown. Binding seen in cells or lysates may run through a third protein. A yes stands for co-enrichment or nearness to the bait. Other partners may have been found.

The chains behind the UniProt entries cited, without tags or fusion partners. Where a name states a change or a piece, a line headed by the entry shows the natural chain unless it says otherwise.
UniProt P0DTC4: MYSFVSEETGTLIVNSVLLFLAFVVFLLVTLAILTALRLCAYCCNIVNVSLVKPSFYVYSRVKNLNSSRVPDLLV
UniProt Q8TAA3: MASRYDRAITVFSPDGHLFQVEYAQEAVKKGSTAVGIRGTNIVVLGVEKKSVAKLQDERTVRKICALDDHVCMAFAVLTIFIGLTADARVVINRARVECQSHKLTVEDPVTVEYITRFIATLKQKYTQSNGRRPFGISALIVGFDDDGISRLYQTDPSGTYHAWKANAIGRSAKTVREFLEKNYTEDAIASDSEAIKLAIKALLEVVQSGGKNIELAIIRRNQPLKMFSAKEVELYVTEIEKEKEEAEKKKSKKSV
UniProt Q99942: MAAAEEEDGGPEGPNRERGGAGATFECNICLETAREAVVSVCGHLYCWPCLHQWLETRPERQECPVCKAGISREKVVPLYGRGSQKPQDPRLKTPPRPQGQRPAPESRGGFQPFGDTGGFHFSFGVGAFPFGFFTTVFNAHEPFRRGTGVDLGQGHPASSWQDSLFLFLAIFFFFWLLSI
UniProt P28074: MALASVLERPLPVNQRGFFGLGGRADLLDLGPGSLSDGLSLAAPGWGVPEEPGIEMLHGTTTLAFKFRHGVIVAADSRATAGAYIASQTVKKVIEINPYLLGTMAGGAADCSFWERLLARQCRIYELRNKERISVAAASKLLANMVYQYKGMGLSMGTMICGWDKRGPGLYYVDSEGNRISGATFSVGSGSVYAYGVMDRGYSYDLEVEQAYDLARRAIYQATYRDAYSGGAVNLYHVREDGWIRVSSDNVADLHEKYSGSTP
UniProt P20618: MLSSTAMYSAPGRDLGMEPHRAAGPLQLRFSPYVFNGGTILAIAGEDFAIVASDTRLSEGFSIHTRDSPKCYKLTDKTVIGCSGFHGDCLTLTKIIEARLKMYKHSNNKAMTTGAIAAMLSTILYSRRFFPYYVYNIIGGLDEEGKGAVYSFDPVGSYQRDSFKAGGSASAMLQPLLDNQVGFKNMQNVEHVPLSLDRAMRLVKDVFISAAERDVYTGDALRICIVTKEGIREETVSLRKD

Molecular target: SARS-CoV-2 envelope (E) protein with an HA tag (SARS-CoV-2) (UniProt P0DTC4)
Assay: affinity purification with mass spectrometry

PSMA8 (from UniProt Q8TAA3 1-256)
binding: binds

RNF5 (endogenous, HEK293T) (from UniProt Q99942 1-180) (enzyme)
binding: binds

PSMB5 (from UniProt P28074)
binding: binds

PSMB1 (from UniProt P20618)
binding: binds
